These are yes or no findings as the source states them, for the method shown. Some entries that bind do so weakly or less than the wild type.
Experiments:
human CD3 (human) [1] = molecular target: T1, human CD3 (human) (UniProt P07766+P09693+P04234+P20963); assay: FACS on human primary T cells
[2] = molecular target: cynomolgus CD3 (cynomolgus) (UniProt Q95LI5+Q95LI7+Q95LI8); assay: FACS on cynomolgus PBMC
human CD3 (human) [3] = molecular target: T1, human CD3 (human); assay: FACS on Jurkat cells

The chains behind the UniProt entries cited, without tags or fusion partners. Where a name states a change or a piece, a line headed by the entry shows the natural chain unless it says otherwise.
UniProt P07766: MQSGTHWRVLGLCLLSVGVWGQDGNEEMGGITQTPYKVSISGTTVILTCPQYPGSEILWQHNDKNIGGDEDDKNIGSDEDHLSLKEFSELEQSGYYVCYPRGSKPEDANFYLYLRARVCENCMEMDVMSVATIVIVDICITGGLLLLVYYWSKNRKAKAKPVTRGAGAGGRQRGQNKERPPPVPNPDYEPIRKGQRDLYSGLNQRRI
UniProt P09693: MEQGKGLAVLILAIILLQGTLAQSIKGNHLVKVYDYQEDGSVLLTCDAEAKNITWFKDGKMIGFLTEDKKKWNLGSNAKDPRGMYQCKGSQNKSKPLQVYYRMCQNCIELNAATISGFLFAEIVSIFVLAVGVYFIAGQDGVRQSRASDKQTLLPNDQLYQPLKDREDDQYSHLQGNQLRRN
UniProt P04234: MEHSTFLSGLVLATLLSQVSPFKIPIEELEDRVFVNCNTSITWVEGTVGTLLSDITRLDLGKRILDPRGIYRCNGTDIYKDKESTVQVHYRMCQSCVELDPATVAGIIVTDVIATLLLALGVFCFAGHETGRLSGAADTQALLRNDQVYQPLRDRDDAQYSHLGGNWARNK
UniProt P20963: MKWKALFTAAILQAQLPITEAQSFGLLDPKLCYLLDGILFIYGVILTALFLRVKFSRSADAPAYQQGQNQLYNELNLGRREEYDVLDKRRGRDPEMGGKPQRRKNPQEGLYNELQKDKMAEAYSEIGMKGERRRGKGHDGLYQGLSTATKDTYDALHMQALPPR
UniProt Q95LI5: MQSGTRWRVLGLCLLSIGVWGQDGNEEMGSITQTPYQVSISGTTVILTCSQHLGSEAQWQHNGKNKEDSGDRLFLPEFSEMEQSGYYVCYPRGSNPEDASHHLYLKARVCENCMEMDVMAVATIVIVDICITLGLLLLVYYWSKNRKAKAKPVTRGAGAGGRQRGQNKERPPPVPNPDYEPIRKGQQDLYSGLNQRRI
UniProt Q95LI7: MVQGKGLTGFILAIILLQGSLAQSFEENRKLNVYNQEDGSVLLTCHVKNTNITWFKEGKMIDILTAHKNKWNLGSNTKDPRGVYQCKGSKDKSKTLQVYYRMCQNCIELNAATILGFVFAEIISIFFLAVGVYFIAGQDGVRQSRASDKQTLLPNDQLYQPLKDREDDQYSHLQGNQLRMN
UniProt Q95LI8: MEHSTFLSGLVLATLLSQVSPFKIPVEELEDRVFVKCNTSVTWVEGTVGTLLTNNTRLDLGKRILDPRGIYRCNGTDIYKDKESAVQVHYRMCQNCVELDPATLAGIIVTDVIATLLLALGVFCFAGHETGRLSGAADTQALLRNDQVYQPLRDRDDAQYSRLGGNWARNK

Measured: binding

B1: 39B12G6 chimeric anti-human CD3 monoclonal antibody (antibody, human IgG1, N297G, V domains shown)
VH: QVQLQQSGPELVKPGASVRISCKASGYTFTTSYIHFVRQRPGQGLEWIGWISPGDVNTKYSEKFKGRATLTADKSSTTAYMQLSSLTSEDSAVYFCTRDYGYYFDYWGQGTTLTVSS
VL: DIVMSQSPSSLAVSAGEKVTMSCKSSQSLLNSRTRKNYLAWYQKKPGQSPKLLIYWASTRESGVPDRFTGSGSGTDFTLTISSVQAEDLAVYYCKQSFILRTFGGGTKLEIKA
binds: human CD3 (human) [1] | [2] | human CD3 (human) [3]
